For at least one entry, the source does not settle the construct or the ends of the probe. For some of these results: No signal at the amounts used counts as a negative. For some of these results: At least one verdict rests on a figure or table, not on a statement of the authors. For some of these results: Weaker means in comparison with the reference protein, sequence or condition of that experiment. For some of these results: Protein sequences can lack the tags named with them.
Tests used:
GST-FMRP (mouse) [1] = molecular target: GST-FMRP (mouse) (UniProt P35922); assay: EMSA; conditions: EMSA: 10 mM Tris-HCl pH 8.0, 100 mM KCl, 0.3 mM MgCl2, 10 mM DTT, 1 h, room temperature; recombinant protein; protein details: GST; label: biotin; probe letters rebuilt from the primers and the genome
GST-TRF2-S [2] = molecular target: T1, GST-TRF2-S (UniProt F6KWE7); assay: biotin pull-down; conditions: Pull-down: HEPES-KOH pH 7.5 buffer B (MgCl2, NP-40, DTT), final 120 mM KCl, 30 min, room temperature, recombinant protein, protein details: GST, label: biotin
T1 sequence (looked up, limits assumed): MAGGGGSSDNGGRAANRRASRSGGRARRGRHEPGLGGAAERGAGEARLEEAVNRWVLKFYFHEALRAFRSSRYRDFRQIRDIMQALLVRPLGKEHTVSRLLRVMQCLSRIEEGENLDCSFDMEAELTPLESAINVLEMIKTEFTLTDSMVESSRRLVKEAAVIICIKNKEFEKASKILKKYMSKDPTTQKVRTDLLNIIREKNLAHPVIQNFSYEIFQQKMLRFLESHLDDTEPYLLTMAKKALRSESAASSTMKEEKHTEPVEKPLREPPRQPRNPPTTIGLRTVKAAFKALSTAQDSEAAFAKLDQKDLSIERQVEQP

GST-FMRP (mouse) [3] = molecular target: GST-FMRP (mouse) (UniProt P35922); assay: biotin pull-down; conditions: Pull-down: HEPES-KOH pH 7.5 buffer B (MgCl2, NP-40, DTT), final 120 mM KCl, 30 min, room temperature; recombinant protein; protein details: GST; label: biotin; probe letters rebuilt from the primers and the genome
GST-TRF2-S [4] = molecular target: T1, GST-TRF2-S; assay: UV cross-linking, RNase T1 footprint sequencing; conditions: 5 mM MgCl2; recombinant protein; protein details: GST; label: biotin; probe letters rebuilt from the primers and the genome
[5] = probe letters rebuilt from the primers and the genome
[6] = letters put together from the description

GGGAGACCAUGGGCUUCAUUCUAAUGUAUGACAUCACCAAUGAGGAGUCCUUCAAUGCAGUGCAGGACUGGUCCACUCAGAUCAAAACUUACUCAUGGGACAAUGCCCAGGUGCUGCUGGUGGGGAACAAGUGCGACAUGGAGGACGAGCGAGUGGUGUCCUCAGAACGAGGCCGGCAGCUGGCCGACCACCUGGGCUUUGAGUUCUUUGAGGCCAGCGCCAAGGACAACAUUAAUGUCAAGCAGACCUUUGAACGUCUGGUGGACGUGAUCUGUGAGAAGAUGUCGGAGUCCCUAGAUACUGCAGACCCUGCAGUCACGGGUGCCAAGCAGGGCCCACAGCUCACCGACCAGCAGGCACCACCUCAUCAGGAUUGCGCCUGCUGAACCACACUUCCCUUCCCCACC [Rab3a-CR2]
binding result (GST-FMRP (mouse) [1]): no binding | binding result (GST-TRF2-S [2]; [5]): binds | binding result (GST-FMRP (mouse) [3]): no binding

GGGAGAGGUCUGCGGGCCUUUCGGAGUAGCCGGUACCGGGACUUCACCGUCUAGCG [Trf2-S Clip-MT2]
binding result (GST-TRF2-S [2]; [6]): binds more weakly

GGGAGAAUGGCGGGAGGAGGCGGGAGCAGCGACAACGGCGGGAGGGCGGCGAACCGGCGAGCAUCGCGCAGCGGCGGGAGGGCUCGACGGGGGCGGCACGAGCCGGGGCUGGGAGGCGCGGCAGAGCGGGGCGCGGGGGAAGCUCGUCUGGAGGAGGCGGUCAACCGCUGGGUGCUCAAGUUCUACUUCCACGAGGCGCUGCGGGCCUUUCGGAGUAGCCGGUACCGGGACUUCAGGCAGAUCCGGGACAUCAUGCAGGCGUUGCUUGUCAGGCCCUUGGGGAAGGAGCAUACGGUGUCCCGGUUGCUGCGGGUUAUGCAGUGUCUAUCGCGCAUUGAAGAAGGAGAAAAUUUAGACUGUUCCUUUGAUAUGGAGGCCGAGCUCACACCCCUGGAGUCAGCUAUCAAUGUGCUGGAGAUGAUUAAAACAGAGUUCACACUGACAGACUCAAUGGUUGAAUCCAGCAGGAGACUGGUGAAGGAGGCUGCUGUCAUUAUUUGUAUCAAAAACAAAGAAUUUGAAAAGGCUUCAAAAAU [Trf2-S-CR1]
binding result (GST-FMRP (mouse) [1]): no binding | binding result (GST-TRF2-S [2]; [5]): binds | binding result (GST-FMRP (mouse) [3]): no binding | binding result (GST-TRF2-S [4]): binds

GGGAGAGCAGGGCCGGGCGGGAGCGCAGGGGACCUGAGGGCCCGAGGCCCGGACAUGGGGCCCUCCAGCCCCACCACUCGCGGUCAGGGUCGCCGCCGGGGCCCGCCGCCGCUGCCGCUGUUGCUACCACUGUCGCUGCUGCUUCUGCGCGCGCAGCUCGCCGUCGGGAACCUGGCUGGUGGGAGCCCCAGCGCGGCCGAGGCUCCGGGGUCGGCUCAAGUGGCUGGACUAUGUGGGCGUCUCACCCUUCACCGAGACCUGCGCACCGGCCGCUGGGAACCAGACCCACAGCGAUCACGACGCUGUCUUCUGGACCCGCAGCGCGUGCUGGAGUACUGCAGACAGAUGUACCCAGAGCUGCACAUAGCUCGUGUGGAGCAGGCUGCACAGGCCAUCCCGAUGGAGCGCUGGUGUGGGGGUACCCGAAGUGGCAGAUGUGCCCACCCCCACCAUGAGGUUGUGCCCUUCCAUUGCCU [Aplp1-5'CR1]
binding result (GST-TRF2-S [2]; [5]): binds | binding result (GST-FMRP (mouse) [3]): no binding

GGGAGAGGUCUGCGGGCCUUUCGGAGUAGCCGGUACCGGGACUUCAGGCAGAUCCG [Trf2-S Clip-WT]
binding result (GST-TRF2-S [2]; [6]): binds

GGGAGAGGUCUGCGGGCCUAAGCCUCAUCCCGGUACCGGGACUUCACCGUCUAGCG [Trf2-S Clip-MT1+2]
binding result (GST-TRF2-S [2]; [6]): binds more weakly

GGGAGAGGUCUGCGGGCCUAAGCCUCAUCCCGGUACCGGGACUUCAGGCAGAUCCG [Trf2-S Clip-MT1]
binding result (GST-TRF2-S [2]; [6]): binds more weakly

Reference: article PMC4673492
